In the supplement of paper PMC11006884:
The entries are a selection whose mix differs from that of the whole data set.

Sequences of proteins named here, by UniProt entry; tags and fusion partners are left off. A change or cut given only in a name is not applied to a line headed by its entry.
UniProt O60506: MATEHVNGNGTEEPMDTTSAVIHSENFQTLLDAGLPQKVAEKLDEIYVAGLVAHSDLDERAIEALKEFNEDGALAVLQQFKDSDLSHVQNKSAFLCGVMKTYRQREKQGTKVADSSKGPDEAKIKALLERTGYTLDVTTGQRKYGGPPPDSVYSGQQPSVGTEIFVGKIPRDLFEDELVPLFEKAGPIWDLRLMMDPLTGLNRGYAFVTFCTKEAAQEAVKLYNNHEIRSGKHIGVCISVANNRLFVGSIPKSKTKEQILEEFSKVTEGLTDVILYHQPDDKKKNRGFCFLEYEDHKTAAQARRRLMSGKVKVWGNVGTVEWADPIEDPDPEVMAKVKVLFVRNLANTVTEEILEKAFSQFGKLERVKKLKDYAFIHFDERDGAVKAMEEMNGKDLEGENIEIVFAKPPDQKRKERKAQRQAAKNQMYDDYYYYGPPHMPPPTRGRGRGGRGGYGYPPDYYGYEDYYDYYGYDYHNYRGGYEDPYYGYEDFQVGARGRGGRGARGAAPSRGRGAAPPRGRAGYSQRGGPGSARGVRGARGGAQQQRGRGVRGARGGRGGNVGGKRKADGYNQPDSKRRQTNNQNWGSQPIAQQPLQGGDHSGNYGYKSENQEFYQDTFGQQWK
UniProt O75190: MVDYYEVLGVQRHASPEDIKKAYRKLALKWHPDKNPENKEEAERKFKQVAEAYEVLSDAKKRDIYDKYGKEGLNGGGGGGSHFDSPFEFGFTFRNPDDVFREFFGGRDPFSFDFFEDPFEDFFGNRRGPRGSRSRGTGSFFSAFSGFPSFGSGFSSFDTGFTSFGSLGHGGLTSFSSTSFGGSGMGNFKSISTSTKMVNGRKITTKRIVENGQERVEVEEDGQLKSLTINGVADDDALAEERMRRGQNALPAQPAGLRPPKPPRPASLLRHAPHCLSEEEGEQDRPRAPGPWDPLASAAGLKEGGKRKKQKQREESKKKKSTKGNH
UniProt O60343: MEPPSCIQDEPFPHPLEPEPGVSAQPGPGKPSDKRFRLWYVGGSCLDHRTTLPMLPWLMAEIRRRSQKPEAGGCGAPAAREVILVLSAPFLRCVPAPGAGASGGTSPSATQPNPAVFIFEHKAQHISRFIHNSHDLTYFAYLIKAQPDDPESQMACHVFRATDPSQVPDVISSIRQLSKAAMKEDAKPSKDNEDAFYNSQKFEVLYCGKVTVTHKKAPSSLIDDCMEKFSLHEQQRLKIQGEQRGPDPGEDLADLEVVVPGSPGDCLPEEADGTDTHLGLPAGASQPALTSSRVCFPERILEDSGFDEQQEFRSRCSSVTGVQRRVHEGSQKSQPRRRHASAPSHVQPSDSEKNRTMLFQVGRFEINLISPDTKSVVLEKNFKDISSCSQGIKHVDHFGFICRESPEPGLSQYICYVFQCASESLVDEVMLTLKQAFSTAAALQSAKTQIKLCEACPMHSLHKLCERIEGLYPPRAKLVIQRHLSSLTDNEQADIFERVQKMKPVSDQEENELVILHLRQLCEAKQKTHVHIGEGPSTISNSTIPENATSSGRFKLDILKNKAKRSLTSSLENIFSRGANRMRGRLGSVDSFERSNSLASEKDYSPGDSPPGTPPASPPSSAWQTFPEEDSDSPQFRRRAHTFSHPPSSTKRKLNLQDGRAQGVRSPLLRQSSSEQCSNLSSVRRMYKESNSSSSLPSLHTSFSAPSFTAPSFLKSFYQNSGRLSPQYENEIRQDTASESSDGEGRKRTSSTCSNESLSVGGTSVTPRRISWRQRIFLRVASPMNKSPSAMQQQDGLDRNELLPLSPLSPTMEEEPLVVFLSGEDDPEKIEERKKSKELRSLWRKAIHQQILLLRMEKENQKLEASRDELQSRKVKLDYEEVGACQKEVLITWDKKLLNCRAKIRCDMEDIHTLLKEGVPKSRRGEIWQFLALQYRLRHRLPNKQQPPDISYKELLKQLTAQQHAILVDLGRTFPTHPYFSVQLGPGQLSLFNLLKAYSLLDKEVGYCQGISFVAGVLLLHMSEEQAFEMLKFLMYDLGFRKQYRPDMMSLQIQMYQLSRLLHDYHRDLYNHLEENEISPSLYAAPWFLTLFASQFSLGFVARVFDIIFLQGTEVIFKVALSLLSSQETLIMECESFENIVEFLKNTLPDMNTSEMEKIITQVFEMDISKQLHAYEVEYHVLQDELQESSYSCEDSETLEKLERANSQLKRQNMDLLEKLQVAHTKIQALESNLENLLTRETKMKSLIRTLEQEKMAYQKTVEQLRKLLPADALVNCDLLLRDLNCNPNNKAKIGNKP
UniProt O75534: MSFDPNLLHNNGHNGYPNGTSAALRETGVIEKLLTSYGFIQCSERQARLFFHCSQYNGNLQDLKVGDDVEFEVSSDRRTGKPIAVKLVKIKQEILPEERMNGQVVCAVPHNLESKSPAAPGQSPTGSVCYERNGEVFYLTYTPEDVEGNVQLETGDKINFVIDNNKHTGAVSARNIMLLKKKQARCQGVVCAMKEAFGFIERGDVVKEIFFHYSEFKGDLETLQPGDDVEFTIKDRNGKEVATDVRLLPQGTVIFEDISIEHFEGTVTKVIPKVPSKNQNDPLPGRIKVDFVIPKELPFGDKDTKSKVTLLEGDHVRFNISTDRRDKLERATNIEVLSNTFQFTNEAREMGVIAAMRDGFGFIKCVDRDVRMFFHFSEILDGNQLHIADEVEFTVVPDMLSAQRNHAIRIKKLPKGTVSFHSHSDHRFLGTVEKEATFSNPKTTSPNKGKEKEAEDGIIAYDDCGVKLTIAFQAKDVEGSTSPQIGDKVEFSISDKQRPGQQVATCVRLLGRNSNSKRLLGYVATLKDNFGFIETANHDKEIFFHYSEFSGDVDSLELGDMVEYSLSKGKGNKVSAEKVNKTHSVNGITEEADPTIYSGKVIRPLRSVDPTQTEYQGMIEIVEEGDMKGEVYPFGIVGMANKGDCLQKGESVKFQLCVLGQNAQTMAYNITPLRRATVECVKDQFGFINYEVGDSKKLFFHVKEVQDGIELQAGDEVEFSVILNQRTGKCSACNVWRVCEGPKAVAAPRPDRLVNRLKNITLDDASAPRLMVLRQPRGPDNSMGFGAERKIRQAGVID
UniProt O75414: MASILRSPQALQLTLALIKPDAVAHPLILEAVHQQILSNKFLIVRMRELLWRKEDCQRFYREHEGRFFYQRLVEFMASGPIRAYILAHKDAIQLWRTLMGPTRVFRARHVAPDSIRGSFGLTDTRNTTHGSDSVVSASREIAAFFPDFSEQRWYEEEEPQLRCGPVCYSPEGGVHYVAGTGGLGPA
UniProt O43707, whole entry, looked up: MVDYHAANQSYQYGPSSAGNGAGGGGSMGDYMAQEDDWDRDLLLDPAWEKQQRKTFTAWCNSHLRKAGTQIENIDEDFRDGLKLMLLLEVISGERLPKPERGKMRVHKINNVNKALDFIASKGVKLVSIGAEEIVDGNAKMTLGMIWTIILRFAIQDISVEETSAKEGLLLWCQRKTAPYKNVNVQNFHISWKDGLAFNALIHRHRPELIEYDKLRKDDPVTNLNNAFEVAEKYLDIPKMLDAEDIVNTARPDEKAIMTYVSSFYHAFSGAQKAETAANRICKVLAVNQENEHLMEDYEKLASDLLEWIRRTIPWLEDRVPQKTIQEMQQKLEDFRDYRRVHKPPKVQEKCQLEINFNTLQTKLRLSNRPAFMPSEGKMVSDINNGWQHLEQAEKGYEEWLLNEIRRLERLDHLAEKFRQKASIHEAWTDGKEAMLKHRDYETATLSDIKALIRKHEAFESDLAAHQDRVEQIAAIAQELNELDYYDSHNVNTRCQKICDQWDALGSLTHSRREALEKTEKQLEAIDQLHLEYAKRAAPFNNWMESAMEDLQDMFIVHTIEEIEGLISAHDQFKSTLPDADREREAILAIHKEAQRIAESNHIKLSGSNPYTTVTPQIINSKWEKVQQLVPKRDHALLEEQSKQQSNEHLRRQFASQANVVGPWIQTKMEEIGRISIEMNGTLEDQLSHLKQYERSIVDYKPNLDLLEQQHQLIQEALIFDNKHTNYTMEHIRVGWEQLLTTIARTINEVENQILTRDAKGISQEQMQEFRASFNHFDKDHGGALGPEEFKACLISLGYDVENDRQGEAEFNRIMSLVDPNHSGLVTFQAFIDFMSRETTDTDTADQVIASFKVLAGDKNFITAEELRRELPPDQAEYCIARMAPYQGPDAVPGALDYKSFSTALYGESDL
UniProt O43524: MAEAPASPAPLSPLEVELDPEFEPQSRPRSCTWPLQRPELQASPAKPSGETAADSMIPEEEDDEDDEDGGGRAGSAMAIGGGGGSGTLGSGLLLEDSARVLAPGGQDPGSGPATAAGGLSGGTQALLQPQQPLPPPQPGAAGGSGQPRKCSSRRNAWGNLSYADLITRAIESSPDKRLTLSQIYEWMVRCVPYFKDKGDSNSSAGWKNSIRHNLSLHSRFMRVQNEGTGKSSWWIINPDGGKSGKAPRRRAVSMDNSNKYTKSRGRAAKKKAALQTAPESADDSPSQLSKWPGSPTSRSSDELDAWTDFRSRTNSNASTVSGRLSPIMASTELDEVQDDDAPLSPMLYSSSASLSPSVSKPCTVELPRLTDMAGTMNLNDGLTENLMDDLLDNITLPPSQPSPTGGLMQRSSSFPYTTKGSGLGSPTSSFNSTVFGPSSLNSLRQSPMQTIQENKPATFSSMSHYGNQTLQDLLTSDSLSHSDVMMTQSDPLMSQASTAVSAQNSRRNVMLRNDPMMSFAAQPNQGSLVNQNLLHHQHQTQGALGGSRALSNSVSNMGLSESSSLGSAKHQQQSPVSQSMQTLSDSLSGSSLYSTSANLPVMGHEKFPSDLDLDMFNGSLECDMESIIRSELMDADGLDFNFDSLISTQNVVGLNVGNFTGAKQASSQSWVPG
UniProt O75410: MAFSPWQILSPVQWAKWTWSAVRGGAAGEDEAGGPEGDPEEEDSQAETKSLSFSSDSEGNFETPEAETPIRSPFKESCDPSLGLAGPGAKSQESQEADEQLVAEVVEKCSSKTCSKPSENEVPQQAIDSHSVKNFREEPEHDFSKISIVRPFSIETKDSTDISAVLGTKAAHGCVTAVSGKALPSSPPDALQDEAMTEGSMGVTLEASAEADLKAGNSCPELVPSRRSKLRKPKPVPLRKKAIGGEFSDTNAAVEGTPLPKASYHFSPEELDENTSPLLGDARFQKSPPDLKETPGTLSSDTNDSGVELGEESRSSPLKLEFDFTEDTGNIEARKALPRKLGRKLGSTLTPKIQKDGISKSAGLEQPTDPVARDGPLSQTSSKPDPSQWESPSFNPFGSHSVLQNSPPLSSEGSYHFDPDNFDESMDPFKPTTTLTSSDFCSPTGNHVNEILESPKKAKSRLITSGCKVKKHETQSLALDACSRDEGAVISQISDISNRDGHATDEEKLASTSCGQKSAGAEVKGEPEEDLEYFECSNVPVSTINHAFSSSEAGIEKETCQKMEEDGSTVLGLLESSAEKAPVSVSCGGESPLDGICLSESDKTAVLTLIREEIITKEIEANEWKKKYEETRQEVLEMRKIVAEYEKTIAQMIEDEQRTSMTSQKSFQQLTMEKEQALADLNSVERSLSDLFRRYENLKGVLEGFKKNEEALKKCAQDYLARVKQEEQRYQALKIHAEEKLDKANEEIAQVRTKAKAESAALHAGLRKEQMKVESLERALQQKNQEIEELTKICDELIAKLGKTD
UniProt O43865, whole entry: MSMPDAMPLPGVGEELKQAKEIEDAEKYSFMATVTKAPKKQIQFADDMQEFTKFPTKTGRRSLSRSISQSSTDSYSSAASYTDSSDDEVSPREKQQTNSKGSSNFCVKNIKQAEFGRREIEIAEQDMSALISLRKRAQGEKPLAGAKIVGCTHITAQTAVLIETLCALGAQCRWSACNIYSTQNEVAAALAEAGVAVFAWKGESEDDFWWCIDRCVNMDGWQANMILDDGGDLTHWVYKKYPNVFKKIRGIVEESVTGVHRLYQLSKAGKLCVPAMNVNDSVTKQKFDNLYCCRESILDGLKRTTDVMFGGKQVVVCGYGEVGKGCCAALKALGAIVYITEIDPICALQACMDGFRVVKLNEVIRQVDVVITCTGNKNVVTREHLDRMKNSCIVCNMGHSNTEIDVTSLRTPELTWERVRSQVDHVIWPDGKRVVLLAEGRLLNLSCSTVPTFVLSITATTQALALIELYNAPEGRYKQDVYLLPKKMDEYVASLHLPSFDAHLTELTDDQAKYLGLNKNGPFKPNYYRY
UniProt O75521: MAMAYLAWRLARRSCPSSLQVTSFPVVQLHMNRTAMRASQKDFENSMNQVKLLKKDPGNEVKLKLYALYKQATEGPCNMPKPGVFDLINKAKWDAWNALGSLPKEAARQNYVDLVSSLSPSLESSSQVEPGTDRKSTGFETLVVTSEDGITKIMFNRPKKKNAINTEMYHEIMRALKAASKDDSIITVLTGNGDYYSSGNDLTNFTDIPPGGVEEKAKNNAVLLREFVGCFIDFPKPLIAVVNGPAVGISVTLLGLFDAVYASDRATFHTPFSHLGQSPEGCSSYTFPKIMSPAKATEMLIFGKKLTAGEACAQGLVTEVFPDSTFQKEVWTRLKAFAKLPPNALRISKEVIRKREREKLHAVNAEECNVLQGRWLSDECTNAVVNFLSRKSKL

Compound: COC(=O)C#Cc1ccccc1 [methyl 3-phenylpropiolate]
Test: log2 ratio of iodoacetamide-alkyne labeling of the cysteine site, DMSO over compound (competition); higher = stronger covalent engagement of the cysteine by the compound, active = 1 or more
Conditions: 500 µM; treatment time 1 h; system: HEK293T cell lysate
Outline: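 HEK293T lysate at 2 mg/mL was treated with vehicle or electrophile (500 µM) for 1 h at ambient temperature, then labelled with iodoacetamide alkyne (1 h), clicked to sCIP-TMT reagents, pooled, digested with trypsin overnight at 37 °C, enriched on streptavidin and eluted with acid. Peptides were analysed by Orbitrap Eclipse LC-MS/MS with FAIMS and quantified in FragPipe, using duplicate channels and three replicates, with cysteines quantified in only one replicate excluded. The log2 competition ratio for each cysteine is the mean control-channel reporter intensity divided by the mean compound-channel reporter intensity.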

log2 ratio of iodoacetamide-alkyne labeling, inactive:
SYNCRIP C289 (UniProt O60506) 0.0306, UniProt O60232_C53 0.206, UGDH C241 (UniProt O60701) -0.0621, UTP20 C1757 (UniProt O75691) -0.209, UGDH C196 (UniProt O60701) -0.421, SRGAP2 C98 (UniProt O75044) 0.331, DNAJB6 C275 (UniProt O75190) 0.372, ROCK2 C247 (UniProt O75116) -0.179, TBC1D4 C266 (UniProt O60343) 0.671, ANKRD17 C906 (UniProt O75179) 0.821, CSDE1 C42 (UniProt O75534) -0.0192, UniProt O60610_C796 0.413, NME6 C167 (UniProt O75414) 0.347, AP1G1 C353 (UniProt O43747) 0.32, ZW10 C124 (UniProt O43264) 0.21, ACTN4 C499 (UniProt O43707) 0.424, FOXO3 C31 (UniProt O43524) 0.268, TACC1 C174 (UniProt O75410) 0.521, NPM3 C41 (UniProt O75607) -0.118, UniProt O43865_C106 0.504, UniProt O75521_C312 0.431, OPA1 C801 (UniProt O60313) 0.154
